Values from PubChem BioAssay AID1508588 (Peter MacCallum Cancer Centre, 2020).

Assay: 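Genome-wide search for knock-downs that heighten vemurafenib action in melanoma cells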 (primary screen)
Cells: human WM266.4 melanoma cells (BRAF V600 mutant)
Reagent: siRNA pool against human genes, 40 nM
Timing: 96 h from transfection to read-out
Treatment: vemurafenib 300 nM (about IC25), added 48 h after transfection, for 48 h; comparison arm got DMSO vehicle only
Detection: 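Ratios to non-targeting siRNA for cell gain, counted as DAPI nuclei after minus before drug and averaged over two replicates, and for absorbance-read medium lactate per cell; both binned into fold-change classes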
Direction: cell gain with vemurafenib: higher = more cell gain than with non-targeting siRNA; lactate per cell with vemurafenib: higher = more lactate made per cell
Hit rule: 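a knock-down counts as enhancing when its fold-change classes with vehicle and with vemurafenib, taken together, show a stronger drug effect on cell gain or lactate per cell; exact class pairs not stated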
Calls: active = enhances vemurafenib effect; inactive = no enhancement seen
This is a random part of about 18,000 reagents tested. 790 of them (4.4%) were called active. 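Calls rest on a combination of fold-change classes in drug and vehicle arms, not all shown here.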 Entries without a mark were called inactive. A reagent listed more than once was tested more than once; the source does not tell the runs apart. Reagent sequences are not shown.

KIAA0930 showed cell gain with vemurafenib 0.74; lactate per cell with vemurafenib 0.84.
PABIR3 (PABIR family member 3) showed cell gain with vemurafenib 0.46; lactate per cell with vemurafenib 1.28.
Silencing of CRNN (cornulin) gave: cell gain with vemurafenib 0.01; lactate per cell with vemurafenib 2.5.
Against KIDINS220 (kinase D interacting substrate 220), the entry reads cell gain with vemurafenib 0.49; lactate per cell with vemurafenib 0.96.
PISD (phosphatidylserine decarboxylase) showed cell gain with vemurafenib 0.2; lactate per cell with vemurafenib 1.88.
Depletion of SFPQ (splicing factor proline and glutamine rich) came out at: cell gain with vemurafenib 0.18; lactate per cell with vemurafenib 1.94.
GPT (glutamic--pyruvic transaminase) showed cell gain with vemurafenib 0.46; lactate per cell with vemurafenib 1.86.
Knock-down of LRRC14 (leucine rich repeat containing 14) came out at: cell gain with vemurafenib 0.3; lactate per cell with vemurafenib 1.5.
With knock-down of LILRB3 (leukocyte immunoglobulin like receptor B3), the screen gave cell gain with vemurafenib 0.49; lactate per cell with vemurafenib 1.21.
Silencing of GTPBP3 (GTP binding protein 3, mitochondrial) resulted in: cell gain with vemurafenib 0.99; lactate per cell with vemurafenib 0.94.
CTTN (cortactin) gave cell gain with vemurafenib 0.71; lactate per cell with vemurafenib 0.33.
Knock-down of CEP128 (centrosomal protein 128) came out at: cell gain with vemurafenib 0.92; lactate per cell with vemurafenib 1.27.
HIPK3 (homeodomain interacting protein kinase 3) gave cell gain with vemurafenib 0.67; lactate per cell with vemurafenib 0.78.
With knock-down of ZBTB24 (zinc finger and BTB domain containing 24), the screen gave cell gain with vemurafenib 0.66; lactate per cell with vemurafenib 0.8.
After knock-down of LIX1L (limb and CNS expressed 1 like), the screen gave cell gain with vemurafenib 0.99; lactate per cell with vemurafenib 1.21.
For SH3BP4 (SH3 domain binding protein 4) the deposit lists cell gain with vemurafenib 0.65; lactate per cell with vemurafenib 0.46.
Depletion of TARS1 (threonyl-tRNA synthetase 1) gave: cell gain with vemurafenib 0.53; lactate per cell with vemurafenib 0.92.
Against TRIM16 (tripartite motif containing 16), the entry reads cell gain with vemurafenib 0.32 (active); lactate per cell with vemurafenib 0.48.
For UNC93A (unc-93 homolog A) the deposit lists cell gain with vemurafenib 1; lactate per cell with vemurafenib 0.7.

Laid out differently: 3 of the entries above.
GPT (glutamic--pyruvic transaminase)
- cell gain with vemurafenib: 0.46
- lactate per cell with vemurafenib: 1.86

LRRC14 (leucine rich repeat containing 14)
- cell gain with vemurafenib: 0.3
- lactate per cell with vemurafenib: 1.5

LILRB3 (leukocyte immunoglobulin like receptor B3)
- cell gain with vemurafenib: 0.49
- lactate per cell with vemurafenib: 1.21

Continued:
Against ITPKB (inositol-trisphosphate 3-kinase B) the deposit lists cell gain with vemurafenib 0.76; lactate per cell with vemurafenib 0.84.
RALA (RAS like proto-oncogene A) gave cell gain with vemurafenib 0.73; lactate per cell with vemurafenib 1.29.
CLEC4E (C-type lectin domain family 4 member E) showed cell gain with vemurafenib 0.78; lactate per cell with vemurafenib 0.56.
Against TAB1 (TGF-beta activated kinase 1 (MAP3K7) binding protein 1) the deposit lists cell gain with vemurafenib 0.61; lactate per cell with vemurafenib 0.77.
After knock-down of OR52E4 (olfactory receptor family 52 subfamily E member 4) the results were cell gain with vemurafenib -0.04; lactate per cell with vemurafenib 1.84.
NSMF showed cell gain with vemurafenib 1.28; lactate per cell with vemurafenib 0.68.
After knock-down of ZNF703 (zinc finger protein 703) the results were cell gain with vemurafenib 0.62; lactate per cell with vemurafenib 0.94.
After knock-down of WNK4 (WNK lysine deficient protein kinase 4) the results were cell gain with vemurafenib 1.12; lactate per cell with vemurafenib 0.55.
Against HYCC2 (hyccin PI4KA lipid kinase complex subunit 2), the entry reads cell gain with vemurafenib 0.17; lactate per cell with vemurafenib 1.12.
MAGEC3 (MAGE family member C3) gave cell gain with vemurafenib 0.12; lactate per cell with vemurafenib 1.3.
KCTD14 (potassium channel tetramerization domain containing 14) gave cell gain with vemurafenib 0.67; lactate per cell with vemurafenib 0.98.
Depletion of TSPAN18 (tetraspanin 18) came out at: cell gain with vemurafenib 0.22; lactate per cell with vemurafenib 0.96.
For SNRNP35 (small nuclear ribonucleoprotein U11/U12 subunit 35), the values are cell gain with vemurafenib 0.49; lactate per cell with vemurafenib 0.98.
CNEP1R1 (CTD nuclear envelope phosphatase 1 regulatory subunit 1) showed cell gain with vemurafenib 0.62; lactate per cell with vemurafenib 0.52.
Silencing of POU2F3 (POU class 2 homeobox 3) came out at: cell gain with vemurafenib 0.63; lactate per cell with vemurafenib 1.54.
After knock-down of RNF167 (ring finger protein 167), the screen gave cell gain with vemurafenib 0.54; lactate per cell with vemurafenib 1.12.
For RNF167 (ring finger protein 167), the entry reads cell gain with vemurafenib 0.35; lactate per cell with vemurafenib 1.12.
For CDKN2D (cyclin dependent kinase inhibitor 2D), the entry reads cell gain with vemurafenib 0.86; lactate per cell with vemurafenib 1.28.
Against CCM2 (CCM2 scaffold protein) the deposit lists cell gain with vemurafenib 0.38; lactate per cell with vemurafenib 0.66.
After knock-down of SNX6 (sorting nexin 6) the results were cell gain with vemurafenib 0.36; lactate per cell with vemurafenib 0.2.
IFITM2 (interferon induced transmembrane protein 2) gave cell gain with vemurafenib 0.24; lactate per cell with vemurafenib 2.31.
